The other results are listed elsewhere or left out. These are further read-outs of the screen, such as a control signal, another cell line or another target. No call is given for them. Most of these compounds were active or inconclusive in the main read-out, so they are no random draw. Potencies come from curve fits of mixed quality, noted in brackets.

This test is described as follows: Cell signaling CRE-BLA (Fsk stim). The note with it: CHO CRE-bla reporter (cAMP response element driving beta-lactamase), forskolin EC10, beta-lactamase ratio; measured here: 460 nm blue channel. An outline of the steps:
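Forskolin analogue NKH 477 at EC10 stimulated CRE-driven beta-lactamase in CHO cells alongside compound dilution series. Beta-lactamase was measured with CCF4, excitation 405 nm, emission ratio 460/530 nm.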
A word on the AC50: it is the concentration giving half of the maximal activity seen. `O=C(Cn1c(=O)n(CCC(=O)N2CCc3ccccc3C2)c(=O)c2ccccc21)NCC1CCCO1` (stereo not drawn): the AC50 was 15.8 µM [rising, single point]. `CCc1nc(SCC(=O)Nc2nccs2)c2oc3ccccc3c2n1`: the AC50 was 1.26 µM [rising, full curve]. Next, `Cc1ccc(NC(=O)NC(=O)CN2C(=O)NC3(CCc4ccccc43)C2=O)c(C)c1` (stereo not drawn): 5.01 µM [falling, single point]; `CCOc1cc(NC(=O)c2ccco2)c(OCC)cc1NC(=O)c1cc(OC)c(OC)c(OC)c1`: 1.26 µM [rising, partial curve]; `CCSc1nnc(NC(=O)c2ccco2)s1`: 0.00398 µM [falling, full curve, poor fit].

Turning to `O=C(NCc1ccccc1)N1CCN(c2ccccc2F)CC1`, the AC50 is 10 µM [falling, partial curve]. Next, `CCOC(=O)/C=c1\s/c(=C\c2ccccc2OC)c(=O)n1CC(=O)N1CCOCC1`: 2 µM [rising, full curve]; `CS(=O)(=O)Nc1cccc(-c2nc(NC3CC3)c3ccccc3n2)c1`: 5.01 µM [rising, partial curve]. For `CCn1cc(C(=O)NCC2CCCO2)c(=O)c2cc(S(=O)(=O)N3CCCCCC3)ccc21` (stereo not drawn) the value was 5.01 µM [falling, single point]. For `CCc1ccc(NC(=O)c2cc(C(C)C)on2)cc1` the value was 0.00316 µM [falling, full curve, poor fit].

Turning to `COc1ccc(-c2nc(NC(=O)CSc3nnc(C)s3)ns2)cc1`, the concentration at half-maximal activity (AC50) was 3.98 µM [falling, partial curve]. Take `CCCC[P+](CCCC)(CCCC)Cc1ccc(NC(=O)[C@@H](Cc2ccc3ccccc3c2)NC(=NC2CCCCC2)NC2CCCCC2)cc1`: the AC50 was 25.1 µM [falling, partial curve, poor fit]. Take `CC(=O)CCS(=O)(=O)c1ccc(C)c(C)c1`: the AC50 is 12.6 µM [falling, single point]. Turning to `CN(C)c1ccc2c(c1)OC(N)=C(C#N)C2c1cccc(F)c1` (stereo not drawn), the AC50 is 1.26 µM [rising, partial curve]. For `O=C1C2C3C=CC(C3)C2C(=O)N1Cc1ccccc1` (stereo not drawn) the value was 0.501 µM [rising, full curve].

For `Cc1nn(C)cc1CNC(=O)C1C2CCC(O2)C1C(=O)O` (stereo not drawn), the concentration at half-maximal activity (AC50) was 12.6 µM [rising, single point]. Next, `CCc1ccc2[nH]c(=O)c(CN(CCCN3CCOCC3)C(=O)Nc3ccccc3)cc2c1`: 10 µM [rising, partial curve]; `CN1CCN(CCCN2c3ccccc3Sc3ccc(S(=O)(=O)N(C)C)cc32)CC1`: 12.6 µM [rising, partial curve]; `Cn1c(=O)c2c(nc(CN3CCN(c4ccccc4)CC3)n2Cc2c(F)cccc2Cl)n(C)c1=O`: 0.316 µM [rising, full curve, poor fit]. Next, `CCC(=O)n1nc(NCc2ccc(OC)c(OC)c2)nc1NCc1ccc(OC)c(OC)c1`: 3.98 µM [rising, partial curve]; `CCn1c(=O)cc(C(=O)OC)sc1=Nc1ccc(F)c(F)c1`: 12.6 µM [falling, single point]; `N#CC(C(=O)NCCc1ccccc1)c1nc2ccccc2nc1N1CCOCC1` (stereo not drawn): 15.8 µM [rising, single point]. For `Cc1cnc(C(=O)Nc2ccccc2C(=O)N2CCOCC2)cn1` the value was 0.00316 µM [falling, full curve, poor fit]; for `CCOC(=O)c1c(NC(=O)c2nn(CC)cc2Br)sc(C)c1C`, 3.16 µM [rising, full curve].

For the compound `Cc1cccc(CN2CCN(CC(=O)NCCCN3CCCC3=O)C2=O)c1`, the half-maximal activity concentration (AC50) is 0.00398 µM [falling, full curve, poor fit]. Next, `COc1ccc(N=CC2=C(O)CCCC2=O)cc1`: 10 µM [falling, single point]. Next, `COc1ccccc1N1CCN(C(=O)Cc2cccs2)CC1`: 0.251 µM [rising, partial curve]; `CCOc1ccccc1C(=O)Nc1nncs1`: 10 µM [rising, partial curve]. Consider `COc1ccc2c(c1)c(=O)c(Br)c(C)n2Cc1ccccc1`, for which the AC50 was 5.01 µM [rising, partial curve]. `Cc1ccccc1OCC(=O)Nc1ccccc1N1CCOCC1`: the concentration at half-maximal activity (AC50) is 15.8 µM [rising, partial curve]. For `O=C(CSc1nnc(NC(=O)C2CCC2)s1)Nc1ccc(N2CCOCC2)cc1` the value was 25.1 µM [falling, single point]; for `CCOC(=O)c1c(C)c(C(=O)NCc2ccccn2)c(C)n1CC`, 20 µM [rising, single point]. On to `Cc1nn2c(N3CCCC3)cc(C(C)C)nc2c1-c1ccccc1`, for which the concentration at half-maximal activity (AC50) is 0.01 µM [rising, full curve, poor fit]. Next, `CCOc1cc(-c2c(C#N)c(N)nc3c2CCCC3C)ccc1O` (stereo not drawn): 5.01 µM [rising, partial curve]. Next, `O=C(c1cc2ccccc2c(=O)o1)N1CCc2ccccc2C1`: 10 µM [falling, partial curve, poor fit]; `COc1cc2c(cc1NC(=O)CSc1nnc(Cc3cccs3)n1C)oc1ccccc12`: 20 µM [rising, partial curve, poor fit]; `CCOc1ccccc1-n1c(COc2ccccc2)nnc1SCC(N)=O`: 0.126 µM [falling, single point]. For `CCOC(=O)c1c(NC(=O)CSc2nnnn2C)sc(CC)c1C` the value was 15.8 µM [rising, single point]; for `CC(=O)Nc1ccc(C(=O)CSc2nnc3scc(-c4ccccc4)n23)cc1`, 7.94 µM [rising, partial curve]. For `COC(=O)c1cc2c(=O)n3ccccc3nc2n(C(C)C)c1=N`, the AC50 is 6.31 µM [rising, partial curve].

With `O=c1[nH]c2cc3c(cc2cc1CN(Cc1nnnn1CC1CCCO1)C1CCCC1)OCO3` (stereo not drawn), the concentration at half-maximal activity (AC50) was 12.6 µM [rising, single point]. As to `O=c1c(-c2cc(F)cc(F)c2)nc2cnc(N3CCOCC3)nc2n1CCc1ccccc1`, the AC50 is 2 µM [rising, partial curve]. Next, `COCCn1c(=O)c(C)nc2cnc(Nc3cccc(OC)c3)nc21`: 12.6 µM [rising, partial curve].

Values taken from PubChem BioAssay AID662 (National Center for Advancing Translational Sciences (NCATS), 2007).
